Data: US20260275576

Tested on: BsmFI
Assay: enzyme reaction in vitro
Conditions: 5' amino-C6 biotinylated (NHS-LC-biotin) on SEQ 1; rCutSmart buffer, 37 C, 40 min; stem1 digested on beads, smaller fragments on denaturing gel; purified recombinant protein; protein details: NEB R0572L

TTTTTTATTATATTACGCTAATAGCATTATATCATGTTAACGCAATGTCCCATATCGCTA / TAGCGATATGGGACATTGCGTTAACATGATATAATGCTATTAGCGTAATATAAT [TIIS stem1 / stem1 comp duplex]
activity on this sequence: active

Construct, isoform or probe ends are uncertain for at least one entry.
